From the supplement of paper PMC10849652 come the findings set out here.

Protein sequences, listed by entry. Tags and fused reporters are not part of them. Lines headed by an entry give the natural chain unless they say otherwise; changes in a name come on top.
UniProt Q6PI26: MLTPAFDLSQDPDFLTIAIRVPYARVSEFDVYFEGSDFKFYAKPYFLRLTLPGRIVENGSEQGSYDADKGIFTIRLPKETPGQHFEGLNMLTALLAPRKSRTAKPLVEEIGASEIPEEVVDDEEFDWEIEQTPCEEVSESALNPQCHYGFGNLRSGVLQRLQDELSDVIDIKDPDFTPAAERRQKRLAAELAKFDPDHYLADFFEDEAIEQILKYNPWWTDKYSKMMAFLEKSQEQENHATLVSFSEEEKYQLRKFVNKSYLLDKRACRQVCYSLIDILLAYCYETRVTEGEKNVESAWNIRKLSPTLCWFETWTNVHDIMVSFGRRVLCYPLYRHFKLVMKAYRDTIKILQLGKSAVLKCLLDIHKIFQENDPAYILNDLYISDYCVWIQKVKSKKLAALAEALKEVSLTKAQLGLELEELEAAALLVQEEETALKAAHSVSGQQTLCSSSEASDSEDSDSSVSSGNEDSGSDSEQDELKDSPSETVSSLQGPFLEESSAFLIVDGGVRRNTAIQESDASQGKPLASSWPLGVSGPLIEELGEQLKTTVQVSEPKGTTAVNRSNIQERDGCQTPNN
UniProt Q9Y6P5: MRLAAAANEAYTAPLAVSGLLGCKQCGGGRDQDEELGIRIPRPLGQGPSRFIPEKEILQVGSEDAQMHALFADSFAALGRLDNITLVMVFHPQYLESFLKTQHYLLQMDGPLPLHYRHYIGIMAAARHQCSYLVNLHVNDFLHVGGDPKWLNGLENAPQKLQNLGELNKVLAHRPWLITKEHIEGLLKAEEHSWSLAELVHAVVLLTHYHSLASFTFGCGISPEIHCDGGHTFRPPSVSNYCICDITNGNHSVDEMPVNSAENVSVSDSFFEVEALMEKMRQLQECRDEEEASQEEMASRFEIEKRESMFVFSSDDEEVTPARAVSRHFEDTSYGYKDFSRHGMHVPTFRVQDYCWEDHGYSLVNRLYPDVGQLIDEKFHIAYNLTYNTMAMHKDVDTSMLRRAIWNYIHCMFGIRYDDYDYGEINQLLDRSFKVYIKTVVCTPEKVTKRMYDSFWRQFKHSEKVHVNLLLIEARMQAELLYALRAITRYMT
UniProt P36952: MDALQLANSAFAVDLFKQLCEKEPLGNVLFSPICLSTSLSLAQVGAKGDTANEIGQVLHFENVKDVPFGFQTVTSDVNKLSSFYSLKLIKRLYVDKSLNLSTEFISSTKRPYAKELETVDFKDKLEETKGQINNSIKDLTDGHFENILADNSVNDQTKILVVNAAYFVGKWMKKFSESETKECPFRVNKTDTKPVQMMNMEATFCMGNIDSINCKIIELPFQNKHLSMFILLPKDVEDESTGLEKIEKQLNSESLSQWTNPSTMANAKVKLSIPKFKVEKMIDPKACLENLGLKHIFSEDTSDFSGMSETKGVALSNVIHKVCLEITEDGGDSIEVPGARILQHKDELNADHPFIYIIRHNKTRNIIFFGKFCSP
UniProt Q8N196: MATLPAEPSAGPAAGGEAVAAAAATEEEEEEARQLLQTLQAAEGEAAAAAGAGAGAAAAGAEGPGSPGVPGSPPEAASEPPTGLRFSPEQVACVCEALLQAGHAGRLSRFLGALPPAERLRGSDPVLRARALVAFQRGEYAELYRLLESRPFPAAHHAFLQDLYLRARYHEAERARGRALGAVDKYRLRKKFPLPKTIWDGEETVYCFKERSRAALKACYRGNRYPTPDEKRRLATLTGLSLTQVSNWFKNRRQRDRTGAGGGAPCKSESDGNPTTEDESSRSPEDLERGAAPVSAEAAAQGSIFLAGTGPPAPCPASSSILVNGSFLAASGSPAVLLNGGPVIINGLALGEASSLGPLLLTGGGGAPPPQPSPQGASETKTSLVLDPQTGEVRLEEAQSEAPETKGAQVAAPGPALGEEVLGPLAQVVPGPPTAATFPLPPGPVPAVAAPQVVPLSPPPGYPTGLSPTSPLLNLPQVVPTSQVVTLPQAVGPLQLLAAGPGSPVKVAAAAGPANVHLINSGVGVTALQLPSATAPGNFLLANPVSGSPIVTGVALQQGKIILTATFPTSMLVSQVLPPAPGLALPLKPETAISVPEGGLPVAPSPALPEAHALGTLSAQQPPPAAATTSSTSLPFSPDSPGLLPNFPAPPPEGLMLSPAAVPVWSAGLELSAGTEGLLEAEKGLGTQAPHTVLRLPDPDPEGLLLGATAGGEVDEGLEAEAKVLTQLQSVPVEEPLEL
UniProt P08697: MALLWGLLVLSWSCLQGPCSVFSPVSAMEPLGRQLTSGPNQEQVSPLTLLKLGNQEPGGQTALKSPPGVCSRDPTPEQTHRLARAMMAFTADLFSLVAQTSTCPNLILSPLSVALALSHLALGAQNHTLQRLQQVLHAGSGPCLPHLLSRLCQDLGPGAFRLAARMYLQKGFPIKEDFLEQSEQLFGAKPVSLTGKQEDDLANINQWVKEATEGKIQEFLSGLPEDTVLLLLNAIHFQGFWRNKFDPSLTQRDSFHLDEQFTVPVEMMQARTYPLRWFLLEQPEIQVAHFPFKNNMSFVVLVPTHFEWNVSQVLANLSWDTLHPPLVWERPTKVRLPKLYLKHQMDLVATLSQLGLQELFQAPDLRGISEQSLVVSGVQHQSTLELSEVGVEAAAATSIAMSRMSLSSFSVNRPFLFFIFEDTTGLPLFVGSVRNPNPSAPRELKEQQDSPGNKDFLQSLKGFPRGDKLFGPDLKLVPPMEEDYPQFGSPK
UniProt Q9UPS6, whole entry, looked up: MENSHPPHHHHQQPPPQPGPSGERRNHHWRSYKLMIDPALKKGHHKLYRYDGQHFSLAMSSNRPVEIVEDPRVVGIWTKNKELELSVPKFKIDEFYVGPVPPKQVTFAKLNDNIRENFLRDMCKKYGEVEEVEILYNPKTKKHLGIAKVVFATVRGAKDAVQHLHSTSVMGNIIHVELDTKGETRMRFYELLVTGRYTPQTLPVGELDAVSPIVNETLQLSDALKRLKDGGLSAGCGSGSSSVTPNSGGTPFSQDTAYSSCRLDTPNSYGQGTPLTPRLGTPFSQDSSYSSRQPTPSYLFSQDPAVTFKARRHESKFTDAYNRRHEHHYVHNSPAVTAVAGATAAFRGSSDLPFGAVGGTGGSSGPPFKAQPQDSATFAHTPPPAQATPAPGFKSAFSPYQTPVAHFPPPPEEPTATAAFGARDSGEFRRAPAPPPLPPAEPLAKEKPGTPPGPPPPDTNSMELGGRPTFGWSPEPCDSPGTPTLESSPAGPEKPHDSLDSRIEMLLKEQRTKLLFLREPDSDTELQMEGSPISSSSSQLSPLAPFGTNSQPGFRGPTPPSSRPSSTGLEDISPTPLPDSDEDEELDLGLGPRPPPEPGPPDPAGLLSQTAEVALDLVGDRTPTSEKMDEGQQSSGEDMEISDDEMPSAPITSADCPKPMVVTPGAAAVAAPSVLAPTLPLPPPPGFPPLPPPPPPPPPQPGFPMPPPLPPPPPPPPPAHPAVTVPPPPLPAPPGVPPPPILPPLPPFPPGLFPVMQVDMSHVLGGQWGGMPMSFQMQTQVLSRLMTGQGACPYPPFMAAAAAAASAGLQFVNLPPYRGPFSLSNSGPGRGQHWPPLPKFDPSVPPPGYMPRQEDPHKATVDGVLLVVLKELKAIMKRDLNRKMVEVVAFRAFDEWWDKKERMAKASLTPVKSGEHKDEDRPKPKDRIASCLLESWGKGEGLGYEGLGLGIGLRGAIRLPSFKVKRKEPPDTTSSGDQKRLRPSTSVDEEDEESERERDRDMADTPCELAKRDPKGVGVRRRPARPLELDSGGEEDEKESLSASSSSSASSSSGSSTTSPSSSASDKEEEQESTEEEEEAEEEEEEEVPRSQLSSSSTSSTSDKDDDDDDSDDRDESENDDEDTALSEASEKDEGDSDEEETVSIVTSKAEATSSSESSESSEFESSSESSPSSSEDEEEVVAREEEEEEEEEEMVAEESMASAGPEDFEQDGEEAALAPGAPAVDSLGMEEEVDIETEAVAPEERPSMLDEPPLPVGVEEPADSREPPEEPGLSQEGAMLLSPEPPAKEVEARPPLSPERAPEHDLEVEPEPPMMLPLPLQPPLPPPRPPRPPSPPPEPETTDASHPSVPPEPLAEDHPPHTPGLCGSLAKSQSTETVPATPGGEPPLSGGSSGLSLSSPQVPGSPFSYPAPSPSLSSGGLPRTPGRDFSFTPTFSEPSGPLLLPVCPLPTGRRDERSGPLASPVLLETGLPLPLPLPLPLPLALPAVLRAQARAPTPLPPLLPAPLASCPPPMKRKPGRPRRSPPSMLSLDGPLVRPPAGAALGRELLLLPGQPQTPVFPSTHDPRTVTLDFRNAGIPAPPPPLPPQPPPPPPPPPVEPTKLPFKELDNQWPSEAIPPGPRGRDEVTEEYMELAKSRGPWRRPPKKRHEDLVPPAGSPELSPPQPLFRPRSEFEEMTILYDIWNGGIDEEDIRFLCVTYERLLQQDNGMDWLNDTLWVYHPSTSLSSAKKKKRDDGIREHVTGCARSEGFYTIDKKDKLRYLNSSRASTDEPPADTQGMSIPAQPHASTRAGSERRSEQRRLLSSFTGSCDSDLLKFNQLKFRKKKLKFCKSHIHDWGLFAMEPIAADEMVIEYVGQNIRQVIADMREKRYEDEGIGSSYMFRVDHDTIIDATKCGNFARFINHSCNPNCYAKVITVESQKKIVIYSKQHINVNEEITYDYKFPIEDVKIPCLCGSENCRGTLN
UniProt Q08357: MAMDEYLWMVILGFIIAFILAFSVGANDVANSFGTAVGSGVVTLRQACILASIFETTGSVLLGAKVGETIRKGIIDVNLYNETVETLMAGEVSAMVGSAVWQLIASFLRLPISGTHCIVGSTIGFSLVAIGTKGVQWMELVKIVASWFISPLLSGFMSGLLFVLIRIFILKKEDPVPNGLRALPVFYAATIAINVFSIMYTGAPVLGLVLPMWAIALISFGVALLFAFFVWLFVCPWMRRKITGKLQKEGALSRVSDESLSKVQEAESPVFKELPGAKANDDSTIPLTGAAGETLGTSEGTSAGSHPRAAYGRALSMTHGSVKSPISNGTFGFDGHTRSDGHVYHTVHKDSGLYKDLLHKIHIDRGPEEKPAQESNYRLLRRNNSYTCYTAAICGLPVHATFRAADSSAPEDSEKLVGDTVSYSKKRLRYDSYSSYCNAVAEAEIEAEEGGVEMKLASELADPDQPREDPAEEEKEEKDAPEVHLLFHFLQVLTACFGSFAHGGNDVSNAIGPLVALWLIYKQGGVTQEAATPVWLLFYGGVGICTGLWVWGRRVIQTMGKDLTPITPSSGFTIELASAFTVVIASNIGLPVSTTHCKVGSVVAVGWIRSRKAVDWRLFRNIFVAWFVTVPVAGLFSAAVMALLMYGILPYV
UniProt O14796: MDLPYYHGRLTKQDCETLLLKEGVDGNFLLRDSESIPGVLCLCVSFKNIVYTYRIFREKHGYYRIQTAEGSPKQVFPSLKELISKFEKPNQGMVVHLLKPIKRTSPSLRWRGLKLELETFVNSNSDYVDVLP
UniProt P05543: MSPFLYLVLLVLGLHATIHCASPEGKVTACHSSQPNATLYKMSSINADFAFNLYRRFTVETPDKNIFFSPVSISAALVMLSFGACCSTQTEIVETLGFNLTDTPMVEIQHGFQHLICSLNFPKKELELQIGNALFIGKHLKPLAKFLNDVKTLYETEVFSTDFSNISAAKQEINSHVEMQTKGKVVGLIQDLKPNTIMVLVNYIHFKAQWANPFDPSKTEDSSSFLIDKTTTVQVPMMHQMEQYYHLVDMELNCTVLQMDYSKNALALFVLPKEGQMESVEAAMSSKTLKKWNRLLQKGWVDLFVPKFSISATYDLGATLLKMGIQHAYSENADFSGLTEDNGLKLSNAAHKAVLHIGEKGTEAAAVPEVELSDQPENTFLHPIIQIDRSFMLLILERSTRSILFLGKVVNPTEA

This is one part of the list.

Compound in the first assay: C#Cc1cccc(Nc2ncnc3cc(OCCOC)c(OCCOC)cc23)c1 [erlotinib]
Briefly: log2 fold change, soluble protein after heating vs DMSO (PISA); higher = thermal stabilisation; K562 lysate, 10 uM; active = over 0.2 and 3.5 SD of the protein, either way, in both replicates (recomputed). In short, it runs like this:
(§1)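 Soluble protein was defined as the supernatant remaining after 21,000xg for 90 min, following pooling of heated aliquots and adjustment to 0.5% NP-40 at 4°C. Before that, crude K562 extract at 1 mg/mL protein in PBS pH 7.4 with 1 mM MgCl2 was treated with 10 μM compound for 30 min and heated for 3 min across 48°C-58°C. Quantification used TMTpro 16plex LC-MS/MS with channel sums equalised, and values are log-two fold changes in thermal stability relative to solvent controls from duplicates.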
Turning to SHQ1 (UniProt Q6PI26), the log2 fold change was inactive: -0.133.
For SERPINA12 (UniProt Q8IW75), the log2 fold change is inactive: 0.218.
On the same count and under the same terms, under SETD6 (UniProt Q8TBK2) stands inactive: -0.142; under SIAH1 isoform 2 (UniProt Q8IUQ4), inactive: 0.016; under SLC12A6 isoform 2 (UniProt Q9UHW9), inactive: 0.013.
For the target SH2B1 (UniProt Q9NRF2), the log2 fold change was inactive: 0.067.
For the target SESN1 isoform 2 (UniProt Q9Y6P5), the log2 fold change was inactive: 0.084.
On the same count and under the same terms, then SERPINB5 (UniProt P36952), with inactive: 0.395.
Same read-out and setting: under SFT2D3 (UniProt Q587I9) stands inactive: 0.038; under SIX5 (UniProt Q8N196), inactive: -0.062; under SIK3 (UniProt Q9Y2K2), inactive: -0.089.
Same read-out and setting: then SERAC1 (UniProt Q96JX3), with inactive: 0.004; and SHB (UniProt Q15464), with inactive: 0.003; and SLC10A4 (UniProt Q96EP9), with inactive: -0.004.
In the case of SGSM3 isoform 2 (UniProt Q96HU1), the log2 fold change is inactive: 0.001.

Compound in the next assay: C/C(=N\NC(=O)C1=CC(=CC=C1)S(=O)(=O)N2CCOCC2)/C3=C(C=CC(=C3)Cl)O
Described as above. In short, it runs like this:
as §1
Regarding SERPINF2 (UniProt P08697), the log2 fold change was inactive: -0.069.
Same read-out and setting: under SKIV2L (UniProt Q15477) stands inactive: 0.34.
On the same count and under the same terms, under SLC10A3 (UniProt P09131) stands inactive: 0.139.
The same measure, in the same setting: under SF1 (UniProt H7C0N4) stands inactive: 0.036.
Consider SETD1B (UniProt Q9UPS6), for which the log2 fold change was inactive: -0.032.
The same measure, in the same setting: then SLC20A2 (UniProt Q08357), with inactive: -0.05; and SIGIRR (UniProt Q6IA17), with inactive: 0.113; and SIMC1 (UniProt Q8NDZ2), with inactive: -0.116.
On to SIN3B (UniProt O75182), for which the log2 fold change is inactive: -0.167.
The same measure, in the same setting: then SH2D1B (UniProt O14796), with inactive: -1.02.
With SERPINA7 (UniProt P05543), the log2 fold change was inactive: -0.107.

Compound in a further assay: C1=CC(=CC=C1C2=NC3=C(N2)C=C(C=C3)C(=O)N)OC4=CC=C(C=C4)Cl
Described as above. The method in brief:
as §1
As for SHQ1 (UniProt Q6PI26), the log2 fold change was inactive: 0.046.
Turning to SERPINA12 (UniProt Q8IW75), the log2 fold change is inactive: -0.409.
SETD6 (UniProt Q8TBK2): the log2 fold change was inactive: -0.036.
The same measure, in the same setting: then SIAH1 isoform 2 (UniProt Q8IUQ4), with inactive: -0.052; and SLC12A6 isoform 2 (UniProt Q9UHW9), with inactive: 0; and SH2B1 (UniProt Q9NRF2), with inactive: 0.041.
In the case of SESN1 isoform 2 (UniProt Q9Y6P5), the log2 fold change is inactive: 0.023.
With SERPINB5 (UniProt P36952), the log2 fold change was inactive: -0.266.
Same read-out and setting: under SFT2D3 (UniProt Q587I9) stands inactive: -0.027; under SIX5 (UniProt Q8N196), inactive: -0.05; under SIK3 (UniProt Q9Y2K2), inactive: 0.094.
Same read-out and setting: under SERAC1 (UniProt Q96JX3) stands inactive: -0.235.
The same measure, in the same setting: under SHB (UniProt Q15464) stands inactive: 0.033; under SLC10A4 (UniProt Q96EP9), inactive: 0.032; under SGSM3 isoform 2 (UniProt Q96HU1), inactive: 0.007.

Compound in another assay: C1=CC2=C(C=CC(=C2)/C=C\3/C(=O)NC(=NCC4=CC=CS4)S3)N=C1
The description is as above. In short, it runs like this: as §1
As for SERPINF2 (UniProt P08697), the log2 fold change is inactive: -0.051.
Still for that read-out and setting: then SKIV2L (UniProt Q15477), with inactive: -0.097; and SLC10A3 (UniProt P09131), with inactive: -0.034.
With SF1 (UniProt H7C0N4), the log2 fold change was inactive: 0.028.
The same measure, in the same setting: under SETD1B (UniProt Q9UPS6) stands inactive: -0.05; under SLC20A2 (UniProt Q08357), inactive: -0.078.
The same measure, in the same setting: then SIGIRR (UniProt Q6IA17), with inactive: 0.052; and SIMC1 (UniProt Q8NDZ2), with inactive: -0.087; and SIN3B (UniProt O75182), with inactive: -0.018.
On the same count and under the same terms, under SH2D1B (UniProt O14796) stands inactive: 0.156; under SERPINA7 (UniProt P05543), inactive: -0.007.

Compound in the next assay: C1=CC2=NC=CN=C2C=C1/C=C/3\C(=O)NC(=O)S3
Described as above. In short, it runs like this:
as §1
On to SHQ1 (UniProt Q6PI26), for which the log2 fold change is inactive: 0.055.
Take SERPINF2 (UniProt P08697): the log2 fold change is inactive: 0.044.
With SERPINA12 (UniProt Q8IW75), the log2 fold change is inactive: 0.416.
As for SH2B1 (UniProt Q9NRF2), the log2 fold change was inactive: 0.015.
Consider SESN1 isoform 2 (UniProt Q9Y6P5), for which the log2 fold change was inactive: 0.077.
Still for that read-out and setting: then SETD1B (UniProt Q9UPS6), with inactive: -0.114; and SLC19A2 (UniProt O60779), with inactive: -0.174.
Same read-out and setting: then SLC20A2 (UniProt Q08357), with inactive: 0.078; and SERPINB5 (UniProt P36952), with inactive: 0.263; and SIAE (UniProt Q9HAT2), with inactive: -0.053.
Same read-out and setting: under SHMT2 (UniProt G3V2Y4) stands inactive: -0.085; under SIMC1 (UniProt Q8NDZ2), inactive: -0.097; under SH2D3A (UniProt Q9BRG2), inactive: -0.28.
Regarding SGO2 (UniProt Q562F6), the log2 fold change is inactive: -0.098.
Still for that read-out and setting: then SIX5 (UniProt Q8N196), with inactive: -0.046; and SERPINB13 (UniProt Q9UIV8), with inactive: 0.388.
On the same count and under the same terms, then SERAC1 (UniProt Q96JX3), with inactive: -0.014; and SERPINA7 (UniProt P05543), with inactive: -0.189.
